Data: article PMC11635738
No constants are given. Whether binding was seen depends on the method and setting. In cells and extracts the contact can be indirect. Binding calls can cover weak binding; strength is not graded here. Sequences can lack the tags named with a protein.

Target: T1, FLAG full-length SREBF1 (pcDNA3.1-FLAG-Srebf1) (mouse) (UniProt Q9WTN3)
T1 sequence: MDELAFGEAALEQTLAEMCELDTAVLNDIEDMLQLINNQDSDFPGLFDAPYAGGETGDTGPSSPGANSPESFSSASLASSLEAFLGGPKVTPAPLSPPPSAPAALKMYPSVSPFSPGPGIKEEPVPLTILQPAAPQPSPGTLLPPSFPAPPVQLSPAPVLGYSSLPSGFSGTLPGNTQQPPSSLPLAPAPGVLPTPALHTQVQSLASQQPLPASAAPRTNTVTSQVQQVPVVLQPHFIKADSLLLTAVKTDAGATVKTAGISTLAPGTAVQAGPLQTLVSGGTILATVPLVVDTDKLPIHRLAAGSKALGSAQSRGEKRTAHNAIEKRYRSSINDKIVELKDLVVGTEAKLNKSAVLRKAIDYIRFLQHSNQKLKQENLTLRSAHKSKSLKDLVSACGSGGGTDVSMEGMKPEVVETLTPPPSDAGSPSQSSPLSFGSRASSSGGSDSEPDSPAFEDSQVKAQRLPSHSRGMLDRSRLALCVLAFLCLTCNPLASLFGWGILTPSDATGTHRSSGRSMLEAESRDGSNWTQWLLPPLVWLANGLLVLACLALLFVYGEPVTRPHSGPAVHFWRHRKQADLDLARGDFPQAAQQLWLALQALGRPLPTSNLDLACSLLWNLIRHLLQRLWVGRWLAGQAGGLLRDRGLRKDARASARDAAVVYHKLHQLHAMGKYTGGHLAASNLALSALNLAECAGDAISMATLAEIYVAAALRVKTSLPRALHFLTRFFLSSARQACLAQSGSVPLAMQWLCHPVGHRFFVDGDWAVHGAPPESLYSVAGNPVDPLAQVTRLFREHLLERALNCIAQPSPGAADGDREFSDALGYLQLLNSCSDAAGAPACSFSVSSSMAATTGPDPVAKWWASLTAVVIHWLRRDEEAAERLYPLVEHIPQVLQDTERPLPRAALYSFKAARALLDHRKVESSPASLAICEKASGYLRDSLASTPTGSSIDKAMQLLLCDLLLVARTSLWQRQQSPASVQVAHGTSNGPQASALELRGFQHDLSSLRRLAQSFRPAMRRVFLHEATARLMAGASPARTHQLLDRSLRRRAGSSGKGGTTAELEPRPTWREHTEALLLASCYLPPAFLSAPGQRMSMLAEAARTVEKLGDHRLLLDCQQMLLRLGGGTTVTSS
Test: co-IP; HEK293T cells transfected with FLAG-Srebf1 (full length) and/or 2xMyc-SCAP together with V5-Armc5 and PA-Insig1; lysis in TNE buffer; anti-FLAG M2 Affinity Gel; elution with FLAG peptide; Western blot

binding: binds
Substance: 2xMyc-SCAP (pcDNA3.1/Hygro(+)-2xMyc-SCAP)
